This note sets out measurements from the supplement of paper PMC8728848.

Assay in all cases: glycan array binding signal (z-score within array); higher = stronger binding
Details in all cases: glycan notation: IUPAC condensed, linker removed

Experiment [1] has as its target Gal(b1-4)GlcNAc(b1-3)Gal(b1-4)GlcNAc(b1-3)Gal(b1-4)GlcNAc(b1-3)Gal(b1-4)GlcNAc(b1-2)Man(a1-3)[Gal(b1-4)GlcNAc(b1-3)Gal(b1-4)GlcNAc(b1-3)Gal(b1-4)GlcNAc(b1-3)Gal(b1-4)GlcNAc(b1-2)Man(a1-6)]Man(b1-4)GlcNAc(b1-4)[Fuc(a1-6)]GlcNAc. Summed up: (§1)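 Columns mapping to the same glycan were averaged after glycan names were converted to IUPAC-condensed notation. The data come from 3228 arrays in the Consortium for Functional Glycomics database, limited to those with an available protein sequence. Binding is reported as a within-array Z-score averaged across arrays of one protein sequence and across linkers.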

Experiment [2] deals with Gal(b1-4)GlcNAc(b1-3)Gal(b1-4)GlcNAc(b1-3)Gal(b1-4)GlcNAc(b1-3)Gal(b1-4)GlcNAc(b1-2)[Gal(b1-4)GlcNAc(b1-3)Gal(b1-4)GlcNAc(b1-3)Gal(b1-4)GlcNAc(b1-3)Gal(b1-4)GlcNAc(b1-6)]Man(a1-6)[Gal(b1-4)GlcNAc(b1-3)Gal(b1-4)GlcNAc(b1-3)Gal(b1-4)GlcNAc(b1-3)Gal(b1-4)GlcNAc(b1-2)Man(a1-3)]Man(b1-4)GlcNAc(b1-4)[Fuc(a1-6)]GlcNAc. Summed up:
as §1

Experiment [3] addresses Gal(b1-4)GlcNAc(b1-3)Gal(b1-4)GlcNAc(b1-3)Gal(b1-4)GlcNAc(b1-3)Gal(b1-4)GlcNAc(b1-3)Gal(b1-4)GlcNAc(b1-2)Man(a1-3)[Gal(b1-4)GlcNAc(b1-3)Gal(b1-4)GlcNAc(b1-3)Gal(b1-4)GlcNAc(b1-3)Gal(b1-4)GlcNAc(b1-3)Gal(b1-4)GlcNAc(b1-2)Man(a1-6)]Man(b1-4)GlcNAc(b1-4)GlcNAc. The essentials:
as §1

The target in experiment [4] is Gal(b1-4)GlcNAc(b1-3)Gal(b1-4)GlcNAc(b1-3)Gal(b1-4)GlcNAc(b1-3)Gal(b1-4)GlcNAc(b1-3)Gal(b1-4)GlcNAc(b1-2)Man(a1-3)[Gal(b1-4)GlcNAc(b1-3)Gal(b1-4)GlcNAc(b1-3)Gal(b1-4)GlcNAc(b1-3)Gal(b1-4)GlcNAc(b1-3)Gal(b1-4)GlcNAc(b1-2)Man(a1-6)]Man(b1-4)GlcNAc(b1-4)[Fuc(a1-6)]GlcNAc. The essentials: as §1
Experiment [5] addresses Gal(b1-4)GlcNAc(b1-3)Gal(b1-4)GlcNAc(b1-3)Gal(b1-4)GlcNAc(b1-3)Gal(b1-4)GlcNAc(b1-3)Gal(b1-4)GlcNAc(b1-2)[Gal(b1-4)GlcNAc(b1-3)Gal(b1-4)GlcNAc(b1-3)Gal(b1-4)GlcNAc(b1-3)Gal(b1-4)GlcNAc(b1-3)Gal(b1-4)GlcNAc(b1-6)]Man(a1-6)[Gal(b1-4)GlcNAc(b1-3)Gal(b1-4)GlcNAc(b1-3)Gal(b1-4)GlcNAc(b1-3)Gal(b1-4)GlcNAc(b1-3)Gal(b1-4)GlcNAc(b1-2)Man(a1-3)]Man(b1-4)GlcNAc(b1-4)[Fuc(a1-6)]GlcNAc. The essentials:
as §1

Experiment [6] concerns the target Gal(b1-4)GlcNAc(b1-3)Gal(b1-4)GlcNAc(b1-3)Gal(b1-4)GlcNAc(b1-3)Gal(b1-4)GlcNAc(b1-3)Gal(b1-4)GlcNAc(b1-3)Gal(b1-4)GlcNAc(b1-2)Man(a1-3)[Gal(b1-4)GlcNAc(b1-3)Gal(b1-4)GlcNAc(b1-3)Gal(b1-4)GlcNAc(b1-3)Gal(b1-4)GlcNAc(b1-3)Gal(b1-4)GlcNAc(b1-3)Gal(b1-4)GlcNAc(b1-2)Man(a1-6)]Man(b1-4)GlcNAc(b1-4)GlcNAc. The essentials:
as §1

Experiment [7] concerns the target Gal(b1-4)GlcNAc(b1-3)Gal(b1-4)GlcNAc(b1-3)GalNAc. The essentials:
as §1

Experiment [8] concerns the target Gal(b1-4)GlcNAc(b1-3)Gal(b1-4)GlcNAc(b1-3)[Gal(b1-4)GlcNAc(b1-3)Gal(b1-4)GlcNAc(b1-6)]GalNAc. Summed up: as §1
The target in experiment [9] is Gal(b1-4)GlcNAc(b1-3)Gal(b1-4)GlcNAc(b1-6)[Gal(b1-3)]GalNAc. The essentials:
as §1

Experiment [10] has as its target Gal(b1-4)GlcNAc(b1-3)Gal(b1-4)[Fuc(a1-3)]GlcNAc(b1-3)Gal(b1-4)[Fuc(a1-3)]GlcNAc. The essentials: as §1
Experiment [11] has as its target Gal(b1-4)GlcNAc(b1-3)GalNAc. The essentials: as §1
The target of experiment [12] is Gal(b1-4)GlcNAc(b1-3)[Fuc(a1-3)GlcNAc(b1-6)]Gal(b1-4)Glc. Summed up: as §1
Experiment [13] concerns the target Gal(b1-4)GlcNAc(b1-3)[Gal(b1-4)GlcNAc(b1-6)]Gal(b1-4)GlcNAc. The essentials:
as §1

Experiment [14] addresses Gal(b1-4)GlcNAc(b1-3)[GlcNAc(b1-6)]Gal(b1-4)GlcNAc. Summed up:
as §1

The target of experiment [15] is Gal(b1-4)GlcNAc(b1-6)Gal(b1-4)GlcNAc. The essentials:
as §1

Experiment [16] addresses Gal(b1-4)GlcNAc(b1-6)GalNAc. Summed up: as §1
Experiment [17] concerns the target Gal(b1-4)GlcNAc(b1-6)[Gal(b1-3)]GalNAc. The essentials:
as §1

The target of experiment [18] is Gal(b1-4)GlcNAc(b1-6)[Gal(b1-4)GlcNAc(b1-3)]GalNAc. The essentials:
as §1

The target of experiment [19] is Gal(b1-4)GlcNAc6P. Summed up: as §1
Experiment [20] addresses Gal(b1-6)Gal. The essentials: as §1
Experiment [21] addresses Gal3S(b1-3)GalNAc. Summed up:
as §1

The target of experiment [22] is Gal3S(b1-3)GlcNAc. Summed up:
as §1

The target in experiment [23] is Gal3S(b1-3)[Fuc(a1-4)]GlcNAc. Summed up:
as §1

The other results are listed elsewhere or left out.

B1: Mermaid1 (Stilbonema majum) (protein)
chain: MGSSHHHHHHSSGLVPRGSHMAASGWLRSPQGTVVKLYRRSLSWSKADEFCKDVDGRLVVDRTADMHLFLIKNVLKEKKSRVWVGLRRTAPHSRTWIWSDGTRQNEDDLDANLWLRDEPNDAAGEEECALFMYSPWEKAWGLNDYLCRGGCRSYQFICEKWIR
Regarding B1, the “glycan array binding signal (z-score)” value in [1] was 0.477; in experiment [2] it was -0.492; in experiment [3], 0.715; in [4], -0.28; in [5], 2.12; in experiment [6], -0.041. Besides, the “glycan array binding signal (z-score)” value in experiment [7] was 1.12; in experiment [8] it was -0.17; in experiment [9] it was -0.763; in experiment [10] it was -0.661; in [11], -0.641; in [12], -0.7. The “glycan array binding signal (z-score)” value in [13] was -0.765; in [14], 0.184; in [15], -0.814; in experiment [16] it was 0.728; in experiment [17], 0.267; in [18], -0.135. For the same molecule, the “glycan array binding signal (z-score)” value in experiment [19] is -0.81; in experiment [20] it was 0.106; in experiment [21], -0.374; in [22], 0.37; in experiment [23], 0.376.
